# Test results: patent US5019394A, “Liposome composition and its production” (Takeda Chemical Industries, Ltd., priority 1987, dated 1991)
# For at least one compound, name, drawing or mass did not settle the structure.
# Experiment: Krafft point of anionic surfactants
# Assay type: physicochemical
row,Compound,Krafft point
1,CCCCCCCCCCCCCC(=O)OCCS(=O)(=O)O [sodium myristoyloxyethanesulfonate],39 °C
2,CCCCCCCCCCCCCCCCCC(=O)OCCS(=O)(=O)O [sodium stearoyloxyethanesulfonate],51 °C
3,CCCCCCCCCCCCCCCC(=O)OCCS(=O)(=O)O [sodium palmitoyloxyethanesulfonate],51 °C
